The values below come from article PMC6362254.

Sequences of proteins named here, by UniProt entry; tags and fusion partners are left off.
UniProt Q96D31: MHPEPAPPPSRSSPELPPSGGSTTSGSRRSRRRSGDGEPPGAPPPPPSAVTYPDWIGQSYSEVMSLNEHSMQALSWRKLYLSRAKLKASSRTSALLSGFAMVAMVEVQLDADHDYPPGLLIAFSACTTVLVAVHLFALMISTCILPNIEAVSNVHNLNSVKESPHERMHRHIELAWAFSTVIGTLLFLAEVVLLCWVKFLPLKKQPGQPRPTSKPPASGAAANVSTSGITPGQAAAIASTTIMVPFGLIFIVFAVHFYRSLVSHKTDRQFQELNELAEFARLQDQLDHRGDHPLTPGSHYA

Assay [1] concerns the target T1, Kv10.1 (hEag1) (human (endogenous in MCF-7)) (UniProt O95259).
T1 sequence: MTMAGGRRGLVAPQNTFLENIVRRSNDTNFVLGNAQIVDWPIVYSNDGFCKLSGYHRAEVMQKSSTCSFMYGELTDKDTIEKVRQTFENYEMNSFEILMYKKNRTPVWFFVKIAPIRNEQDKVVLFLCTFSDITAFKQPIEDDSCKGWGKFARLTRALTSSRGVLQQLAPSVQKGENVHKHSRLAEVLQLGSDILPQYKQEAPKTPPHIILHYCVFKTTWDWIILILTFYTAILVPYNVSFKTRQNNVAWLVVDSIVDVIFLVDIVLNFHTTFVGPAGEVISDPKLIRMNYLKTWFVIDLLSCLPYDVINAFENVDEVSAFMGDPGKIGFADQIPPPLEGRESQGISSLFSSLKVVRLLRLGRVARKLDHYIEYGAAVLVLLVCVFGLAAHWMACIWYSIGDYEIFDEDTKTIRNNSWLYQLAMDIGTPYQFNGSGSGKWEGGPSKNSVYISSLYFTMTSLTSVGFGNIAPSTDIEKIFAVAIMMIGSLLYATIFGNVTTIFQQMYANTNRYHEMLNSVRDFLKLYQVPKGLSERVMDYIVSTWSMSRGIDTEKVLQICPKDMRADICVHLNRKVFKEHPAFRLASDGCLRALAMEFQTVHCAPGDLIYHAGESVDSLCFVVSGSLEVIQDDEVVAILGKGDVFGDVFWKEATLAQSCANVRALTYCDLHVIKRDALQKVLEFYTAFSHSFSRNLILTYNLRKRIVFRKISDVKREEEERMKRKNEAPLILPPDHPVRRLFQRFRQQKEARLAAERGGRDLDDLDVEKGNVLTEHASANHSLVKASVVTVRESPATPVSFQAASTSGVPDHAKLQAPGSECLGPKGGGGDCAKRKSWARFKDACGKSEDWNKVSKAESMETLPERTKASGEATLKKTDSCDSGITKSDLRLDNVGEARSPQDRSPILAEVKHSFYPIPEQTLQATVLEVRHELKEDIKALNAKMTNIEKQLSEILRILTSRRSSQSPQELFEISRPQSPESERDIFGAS
As to the kind of experiment: co-IP; immunoprecipitation with anti-Kv10.1 antibody (4 ug, overnight, 4 °C, magnetic beads A) from RIPA extract of MCF-7 cells, siCtl or siSPCA2; blot for Orai1.

The target of assay [2] is T2, SPCA2 (Secretory Pathway Ca2+-ATPase 2) (human (endogenous in MCF-7)) (UniProt O75185).
T2 sequence: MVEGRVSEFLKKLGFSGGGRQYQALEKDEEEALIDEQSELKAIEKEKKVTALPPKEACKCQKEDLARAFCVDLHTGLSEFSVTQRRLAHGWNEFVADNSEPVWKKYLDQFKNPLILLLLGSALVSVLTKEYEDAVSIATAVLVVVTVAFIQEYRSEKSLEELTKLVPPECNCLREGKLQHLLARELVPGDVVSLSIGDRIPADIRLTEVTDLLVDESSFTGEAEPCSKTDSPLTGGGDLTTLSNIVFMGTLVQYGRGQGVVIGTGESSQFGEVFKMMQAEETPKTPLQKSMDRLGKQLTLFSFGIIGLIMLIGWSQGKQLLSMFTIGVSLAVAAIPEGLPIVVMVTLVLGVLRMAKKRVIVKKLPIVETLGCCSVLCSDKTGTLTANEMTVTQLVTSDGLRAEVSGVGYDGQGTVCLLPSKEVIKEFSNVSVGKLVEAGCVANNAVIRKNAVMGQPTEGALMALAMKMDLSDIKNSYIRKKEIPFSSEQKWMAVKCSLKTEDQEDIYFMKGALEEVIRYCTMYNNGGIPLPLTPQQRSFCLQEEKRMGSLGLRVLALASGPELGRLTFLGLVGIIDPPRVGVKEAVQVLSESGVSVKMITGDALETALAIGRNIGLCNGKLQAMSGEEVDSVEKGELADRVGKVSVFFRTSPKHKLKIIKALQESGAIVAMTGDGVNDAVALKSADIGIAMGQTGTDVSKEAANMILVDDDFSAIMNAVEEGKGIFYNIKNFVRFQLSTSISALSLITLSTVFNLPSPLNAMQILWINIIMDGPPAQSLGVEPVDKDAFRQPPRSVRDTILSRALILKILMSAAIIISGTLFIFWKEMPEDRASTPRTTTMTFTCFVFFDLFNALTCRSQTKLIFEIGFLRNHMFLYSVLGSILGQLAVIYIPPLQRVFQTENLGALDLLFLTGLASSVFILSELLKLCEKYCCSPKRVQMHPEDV
Kind of assay: co-IP; immunoprecipitation with anti-SPCA2 antibody (4 ug, overnight, 4 °C, magnetic beads A) from 1 mg RIPA extract of MCF-7 cells after 48 h of starvation, seeded or not on collagen 1, with or without MβCD (5 mg/ml, 2 h); blot for Kv10.1 and Orai1.

No constants are given. Whether binding was seen depends on the method and setting. In cells and extracts the contact can be indirect. Some entries that bind do so weakly or less than the wild type.

On to Orai1 (from UniProt Q96D31 1-301), for which the binding result in assay [1] and in assay [2] was “binds” each time.

B1: Kv10.1 (hEag1) (protein, UniProt O95259 1-989)
chain: MTMAGGRRGLVAPQNTFLENIVRRSNDTNFVLGNAQIVDWPIVYSNDGFCKLSGYHRAEVMQKSSTCSFMYGELTDKDTIEKVRQTFENYEMNSFEILMYKKNRTPVWFFVKIAPIRNEQDKVVLFLCTFSDITAFKQPIEDDSCKGWGKFARLTRALTSSRGVLQQLAPSVQKGENVHKHSRLAEVLQLGSDILPQYKQEAPKTPPHIILHYCVFKTTWDWIILILTFYTAILVPYNVSFKTRQNNVAWLVVDSIVDVIFLVDIVLNFHTTFVGPAGEVISDPKLIRMNYLKTWFVIDLLSCLPYDVINAFENVDEVSAFMGDPGKIGFADQIPPPLEGRESQGISSLFSSLKVVRLLRLGRVARKLDHYIEYGAAVLVLLVCVFGLAAHWMACIWYSIGDYEIFDEDTKTIRNNSWLYQLAMDIGTPYQFNGSGSGKWEGGPSKNSVYISSLYFTMTSLTSVGFGNIAPSTDIEKIFAVAIMMIGSLLYATIFGNVTTIFQQMYANTNRYHEMLNSVRDFLKLYQVPKGLSERVMDYIVSTWSMSRGIDTEKVLQICPKDMRADICVHLNRKVFKEHPAFRLASDGCLRALAMEFQTVHCAPGDLIYHAGESVDSLCFVVSGSLEVIQDDEVVAILGKGDVFGDVFWKEATLAQSCANVRALTYCDLHVIKRDALQKVLEFYTAFSHSFSRNLILTYNLRKRIVFRKISDVKREEEERMKRKNEAPLILPPDHPVRRLFQRFRQQKEARLAAERGGRDLDDLDVEKGNVLTEHASANHSLVKASVVTVRESPATPVSFQAASTSGVPDHAKLQAPGSECLGPKGGGGDCAKRKSWARFKDACGKSEDWNKVSKAESMETLPERTKASGEATLKKTDSCDSGITKSDLRLDNVGEARSPQDRSPILAEVKHSFYPIPEQTLQATVLEVRHELKEDIKALNAKMTNIEKQLSEILRILTSRRSSQSPQELFEISRPQSPESERDIFGAS
As for B1, the binding result in assay [2] is “binds”.
